Measured values published in PMC6131785.
No constants are given. Whether binding was seen depends on the method and setting. In cells and extracts the contact can be indirect. Some entries that bind do so weakly or less than the wild type.

By UniProt entry, the sequences of proteins in these tests, tags left out.
UniProt P45983: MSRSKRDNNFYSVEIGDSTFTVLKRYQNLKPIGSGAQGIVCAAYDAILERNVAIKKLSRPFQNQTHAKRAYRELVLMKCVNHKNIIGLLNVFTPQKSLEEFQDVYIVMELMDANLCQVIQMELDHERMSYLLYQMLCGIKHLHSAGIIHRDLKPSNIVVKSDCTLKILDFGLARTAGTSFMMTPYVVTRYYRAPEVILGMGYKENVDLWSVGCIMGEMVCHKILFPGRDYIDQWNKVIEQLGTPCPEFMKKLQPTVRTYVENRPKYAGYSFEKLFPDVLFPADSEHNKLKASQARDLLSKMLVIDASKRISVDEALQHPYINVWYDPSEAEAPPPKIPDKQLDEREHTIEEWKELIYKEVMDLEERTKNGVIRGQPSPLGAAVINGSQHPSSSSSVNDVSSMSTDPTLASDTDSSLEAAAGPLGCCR
UniProt Q91Y86: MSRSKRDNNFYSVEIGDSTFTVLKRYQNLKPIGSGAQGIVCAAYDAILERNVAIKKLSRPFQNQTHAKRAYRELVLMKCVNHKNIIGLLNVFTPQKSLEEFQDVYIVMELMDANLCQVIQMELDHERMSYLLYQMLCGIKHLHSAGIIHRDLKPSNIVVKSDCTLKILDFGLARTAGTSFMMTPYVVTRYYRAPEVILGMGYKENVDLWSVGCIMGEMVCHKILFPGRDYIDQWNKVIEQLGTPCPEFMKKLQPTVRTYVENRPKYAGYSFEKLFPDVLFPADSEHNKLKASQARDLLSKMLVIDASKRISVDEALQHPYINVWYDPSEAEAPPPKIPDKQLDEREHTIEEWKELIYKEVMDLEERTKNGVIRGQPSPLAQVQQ

Assays:
[1] = biological target: Flag-JNK1 (c-Jun N-terminal kinase 1) (UniProt P45983); experiment: co-IP; HEK 293T cells co-transfected with HA-FAF1 and Flag-JNK1, untreated or oxygen glucose deprivation for 30 min; whole cell lysates immunoprecipitated with anti-Flag antibody, immunoblot
[2] = biological target: endogenous JNK1 of Faf1+/+ mouse embryonic fibroblasts (mouse (endogenous in MEFs)) (UniProt Q91Y86); experiment: co-IP; endogenous proteins; Faf1+/+ MEFs treated with oxygen glucose deprivation for the indicated times; lysates immunoprecipitated with anti-JNK1 antibody, immunoblot
[3] = biological target: endogenous JNK1 of Faf1+/+ mouse embryonic fibroblasts (mouse (endogenous in MEFs)) (UniProt Q91Y86); experiment: condition: only 2 h after oxygen glucose deprivation; co-IP; endogenous proteins; Faf1+/+ MEFs 2 h after oxygen glucose deprivation; lysates immunoprecipitated with anti-JNK1 antibody, immunoblot
[4] = biological target: endogenous JNK1 of RGC5 cells (not stated (endogenous in RGC5 cells)) (UniProt Q91Y86); experiment: co-IP; endogenous proteins; RGC5 cells treated with oxygen glucose deprivation for the indicated times; whole cell lysates immunoprecipitated with anti-JNK1 antibody, immunoblot

In the case of “HA-FAF1 (Fas-associated factor 1) (from UniProt Q9UNN5 1-650)”, the binding [1] is reported as “binds”.

B1: endogenous FAF1 of Faf1+/+ mouse embryonic fibroblasts (protein, UniProt P54731 1-649)
chain: MASNMDREMILADFQACTGIENIDEAITLLEQNNWDLVAAINGVIPQENGILQSDFGGETMPGPTFDPASHPAPASTPSSSAFRPVMPSRQIVERQPRMLDFRVEYRDRNVDVVLEDSCTVGEIKQILENELQIPVPKMLLKGWKTGDVEDSTVLKSLHLPKNNSLYVLTPDLPPPSSSSHAGALQESLNQNFMLIITHREVQREYNLNFSGSSTVQEVKRNVYDLTSIPVRHQLWEGWPASATDDSMCLAESGLSYPCHRLTVGRRTSPVQTREQSEEQSTDVHMVSDSDGDDFEDASEFGVDDGEVFGMASSTLRKSPMMPENAENEGDALLQFTAEFSSRYGDCHPVFFIGSLEAAFQEAFYVKARDRKLLAIYLHHDESVLTNVFCSQMLCAESIVSYLSQNFITWAWDLTKDTNRARFLTMCNRHFGSVIAQTIRTQKTDQFPLFLIIMGKRSSNEVLNVIQGNTTVDELMMRLMAAMEIFSAQQQEDIKDEDEREARENVKREQDEAYRLSLEADRAKREAHEREMAEQFRLEQIRKEQEEEREAIRLSLEQALPPEPKEENAEPVSKLRIRTPSGEFLERRFLASNKLQIVFDFVASKGFPWDEFKLLSTFPRRDVTQLDPNKSLLEVNLFPQETLFLQAKE
In the case of B1, the binding [2] is reported as “binds” and the binding [3] is reported as “no binding”.

B2: endogenous FAF1 of RGC5 cells (protein, UniProt P54731 1-649)
chain: B1 chain
In the case of B2, the binding [4] is reported as “binds”.
